Assay results taken from article PMC11017252, “Copper(II) Complexes with 2,2′:6′,2″-Terpyridine Derivatives Displaying Dimeric Dichloro−μ–Bridged Crystal Structure: Biological Activities from 2D and 3D Tumor Spheroids to In Vivo Models” (Journal of Medicinal Chemistry, 2024).

Assays:
[1] = system: HCT116DoxR (Dox-resistant colorectal carcinoma cell line); experiment: MTS cell viability assay, 2D culture, HCT116DoxR; details: IC50 fibroblasts / IC50 HCT116DoxR, 48 h
[2] = system: A2780 (ovarian carcinoma cell line); experiment: MTS cell viability assay, 2D culture, A2780; assay type: cell-based, human; details: IC50 fibroblasts / IC50 A2780, 48 h
[3] = system: HCT116 (colorectal carcinoma cell line); experiment: MTS cell viability assay, 2D culture, HCT116; assay type: cell-based, human; details: IC50 fibroblasts / IC50 HCT116, 48 h
[4] = system: HCT116DoxR cells; experiment: Copper internalization and subcellular fractionation by ICP-AES; assay type: cell-based, human; details: 6 h, 20× the IC50
[5] = system: HCT116DoxR cells; experiment: Cellular internalization by fluorescence and confocal microscopy; assay type: cell-based, human; details: 10× the IC50; for intracellular localization (fluorescence): 3 and 6 h
[6] = Abcam ab109719 and Cell Signaling #9038 kits

Row | Structure (SMILES) | SI (HCT116DoxR) [1] | SI (A2780) [2] | SI (HCT116) [3] | further results
1 | F[P-](F)(F)(F)(F)F.F[P-](F)(F)(F)(F)F.[Cl][Cu].[Cl][Cu].c1ccc(-c2cc(-c3ccccn3)nc(-c3ccccn3)c2)nc1.c1ccc(-c2cc(-c3ccccn3)nc(-c3ccccn3)c2)nc1 [complex 7, [Cu2Cl2(4′-(2-Pyridynyl)-terpy)2](PF6)2] | 82.8 | 14.2 | 71.3 | copper % cytosol ([4]; Abcam kit ab109719): 0.00%; copper % mitochondria, membrane, and endoplasmic reticulum ([4]; Abcam kit ab109719): 35.26%; copper % nucleus, cytoskeleton, and Golgi complex ([4]; Abcam kit ab109719): 45.19%; copper % supernatant ([4]; Abcam kit ab109719): 19.55%
2 | c1ccc(-c2cc(-c3ccnc4ccccc34)cc(-c3ccccn3)n2)nc1 [L2] | 119.9 |  |  | 
3 | F[P-](F)(F)(F)(F)F.F[P-](F)(F)(F)(F)F.[Cl][Cu].[Cl][Cu].c1ccc(-c2cc(-c3ccnc4ccccc34)cc(-c3ccccn3)n2)nc1.c1ccc(-c2cc(-c3ccnc4ccccc34)cc(-c3ccccn3)n2)nc1 [complex 2, [Cu2Cl2(4′-(4-Quinolyl)-terpy)2](PF6)2] | 124.7 | 58.0 | 101.6 | copper % Golgi complex [4, 6]: ~10% and 9.59%; copper % cytosol [4, 6]: 2.60%; copper % mitochondria, membrane, and endoplasmic reticulum [4, 6]: 31.00%; copper % nucleus and cytoskeleton [4, 6]: 33.13%; copper % other organelles [4, 6]: 0.00%; copper % supernatant [4, 6]: 23.68%; intracellular localization (fluorescence) [5]: mainly in the cell membrane and cytosol; internalization after 6 h ([5]; 6 h): almost complete
4 | CCn1c2ccccc2c2cc(-c3cc(-c4ccccn4)nc(-c4ccccn4)c3)ccc21.CCn1c2ccccc2c2cc(-c3cc(-c4ccccn4)nc(-c4ccccn4)c3)ccc21.F[P-](F)(F)(F)(F)F.F[P-](F)(F)(F)(F)F.[Cl][Cu].[Cl][Cu] [complex 8, [Cu2Cl2(4′-(N-Ethyl-9H-carbazol-3-yl)-terpy)2](PF6)2] | 38.4 | 20.0 | 75.1 | 
5 | c1ccc(-c2cc(-c3cccc4ccccc34)cc(-c3ccccn3)n2)nc1 [L1] | 285.1 |  |  | 
6 | COc1ccc2c(OC)ccc(-c3cc(-c4ccccn4)nc(-c4ccccn4)c3)c2c1 [L4] | 36.1 |  |  | 
7 | COc1ccc(-c2cc(-c3ccccn3)nc(-c3ccccn3)c2)c2ccccc12.COc1ccc(-c2cc(-c3ccccn3)nc(-c3ccccn3)c2)c2ccccc12.F[P-](F)(F)(F)(F)F.F[P-](F)(F)(F)(F)F.[Cl][Cu+].[Cl][Cu+] [complex 3, [Cu2Cl2(4′-(4-Methoxy-1-naphthyl)-terpy)2](PF6)2] | 42.2 | 9.5 | 49.8 | % of internalization (copper in cellular fraction) [4]: ~90%; copper % cytosol ([4]; Abcam kit ab109719): 9.78%; copper % mitochondria, membrane, and endoplasmic reticulum ([4]; Abcam kit ab109719): 33.58%; copper % nucleus, cytoskeleton, and Golgi complex ([4]; Abcam kit ab109719): 43.66%; copper % supernatant ([4]; Abcam kit ab109719): 12.98%; intracellular localization (fluorescence) [5]: throughout the cell, including in the nucleus
8 | F[P-](F)(F)(F)(F)F.F[P-](F)(F)(F)(F)F.[Cl][Cu].[Cl][Cu].c1ccc(-c2cc(-c3cccc4ccccc34)cc(-c3ccccn3)n2)nc1.c1ccc(-c2cc(-c3cccc4ccccc34)cc(-c3ccccn3)n2)nc1 [complex 1, [Cu2Cl2(4′-(1-Naphthyl)-terpy)2](PF6)2] | 24.5 | 3.8 | 19.4 | 
9 | COc1ccc2c(OC)ccc(-c3cc(-c4ccccn4)nc(-c4ccccn4)c3)c2c1.COc1ccc2c(OC)ccc(-c3cc(-c4ccccn4)nc(-c4ccccn4)c3)c2c1.F[P-](F)(F)(F)(F)F.F[P-](F)(F)(F)(F)F.[Cl][Cu].[Cl][Cu] [complex 4, [Cu2Cl2(4′-(4,7-Dimethoxy-1-naphthyl)-terpy)2](PF6)2] | 16.5 | 5.4 | 17.1 | 
10 | F[P-](F)(F)(F)(F)F.F[P-](F)(F)(F)(F)F.[Cl][Cu].[Cl][Cu].c1ccc(-c2cc(-c3ccco3)cc(-c3ccccn3)n2)nc1.c1ccc(-c2cc(-c3ccco3)cc(-c3ccccn3)n2)nc1 [complex 5, [Cu2Cl2(4′-(2-Furanyl)-terpy)2](PF6)2] | 56.4 | 15.9 | 47.6 | copper % cytosol ([4]; Abcam kit ab109719): 2.66%; copper % mitochondria, membrane, and endoplasmic reticulum ([4]; Abcam kit ab109719): 20.39%; copper % nucleus, cytoskeleton, and Golgi complex ([4]; Abcam kit ab109719): 54.99%; copper % supernatant ([4]; Abcam kit ab109719): 21.96%
11 | c1ccc(-c2cc(-c3ccccn3)nc(-c3ccccn3)c2)nc1 [L7] | 110.1 |  |  | 
12 | CCn1c2ccccc2c2cc(-c3cc(-c4ccccn4)nc(-c4ccccn4)c3)ccc21 [L8] | 23.4 |  |  | 
13 | c1ccc(-c2cc(-c3ccco3)cc(-c3ccccn3)n2)nc1 [L5] | 80.0 |  |  | 
14 | COc1ccc(-c2cc(-c3ccccn3)nc(-c3ccccn3)c2)c2ccccc12 [L3] | 4.9 |  |  | 

“And” between values parts separate entries of the source, which are not always exact repeats. Identical values can stand only once.
